From patent US5362851A, “Peptide substrates, method of preparation and use in the determination of protein C” (Serbio, priority 1990, dated 1994)
Part of at least one peptide drawing is inferred or uncertain, most often the ends. Square brackets hold non-standard residues; d marks the D form. Peptide text beside a SMILES is read from it. * marks the point of attachment. pNA = O=[N+]([O-])c1ccc(N*)cc1; pGlu = O=C1CC[C@@H](C(=O)O)N1; Thz = O=C(O)[C@@H]1CSCN1; Cbz = O=C(OCc1ccccc1)*

Chains of the proteins cited; added tags and fusions are not shown. Residues count along the entry.
UniProt P04070, 43-197 partner limits assumed: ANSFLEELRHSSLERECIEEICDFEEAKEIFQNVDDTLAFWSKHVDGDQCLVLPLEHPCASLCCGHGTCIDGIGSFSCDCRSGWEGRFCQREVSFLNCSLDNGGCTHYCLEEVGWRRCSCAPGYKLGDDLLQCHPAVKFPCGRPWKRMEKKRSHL
UniProt P04070, 212-461 limits assumed: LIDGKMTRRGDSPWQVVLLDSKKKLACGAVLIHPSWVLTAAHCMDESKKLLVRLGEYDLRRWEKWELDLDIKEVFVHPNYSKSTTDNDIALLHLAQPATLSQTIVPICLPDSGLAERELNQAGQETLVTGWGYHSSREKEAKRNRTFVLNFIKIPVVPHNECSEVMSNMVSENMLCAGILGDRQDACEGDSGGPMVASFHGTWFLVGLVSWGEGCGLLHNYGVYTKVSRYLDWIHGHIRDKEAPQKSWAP

Tests used:
[1] = target: T1, Protein C (Homo sapiens, UniProt P04070); test: Activity towards Protein C: hydrolysis rate of the substrate assessed by variation in optical density with time (ΔOD/min); assay type: biochemical; details: equimolar doses, activity of reference product of formula IIa (CP 1) specified as 100%
[2] = target: T1, Protein C; details: prior art statement; cited from earlier work

Row | SMILES | Activity towards Protein C [1] [%] | Efficacy in the determination of Protein C [2]
1 | N=C(N)NCCC[C@H](NC(=O)[C@@H]1CCCN1C(=O)[C@@H]1CCC(=O)N1)C(=O)Nc1ccc([N+](=O)[O-])cc1 [CP 1, H--L--Pyr--L--Pro--L--Arg--pNA, reference compound] ([pGlu]-Pro-Arg-pNA) | 100 | effective in the determination of Protein C
2 | N=C(N)NCCC[C@H](NC(=O)[C@@H]1CCCN1C(=O)[C@H](N)CCCCNC(=O)OCc1ccccc1)C(=O)Nc1ccc([N+](=O)[O-])cc1 [CP 2, H--D--Lys(Cbo)--L--Pro--L--Arg--pNA, reference compound] (H-[dK](Cbz)-Pro-Arg-pNA) | 34 | inferior to that of the aforementioned compound IIa
3 | N=C(N)NCCC[C@H](NC(=O)[C@@H]1C(O)CCN1C(=O)[C@@H]1CSC(=O)N1)C(=O)Nc1ccc([N+](=O)[O-])cc1 (stereo partly shown) [Ex. 3] | 118 | –
4 | NCCCC[C@H](NC(=O)[C@@H]1CCCN1C(=O)[C@@H]1CSC(=O)N1)C(=O)Nc1ccc([N+](=O)[O-])cc1 [Ex. 5] | 122 | –
5 | N=C(N)NCCC[C@H](NC(=O)[C@@H]1CCCN1C(=O)[C@@H]1CSCN1)C(=O)Nc1ccc([N+](=O)[O-])cc1 [Ex. 7] (H-[Thz]-Pro-Arg-pNA) | 110 | –
